The values are deposited in ChEMBL (CHEMBL3988442, “University of Dundee, Small-Polar-MMV Screening Library” (2021)).

Mtb growth Cornell: 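Whole-cell assay for inhibitors of Mycobacterium tuberculosis growth, labelled Cornell in the record; the read-out is not stated. The concentration is filed as 10 mM, unlikely as a test dose, so the dose is not known. Higher means stronger inhibition (inferred from two other growth screens of the library). Of about 53,000 compounds tested this way, about 900 (1.7%) reached 50% or more in at least one test.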
Mtb heat-shock: 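Assay on Mycobacterium tuberculosis, filed only as a heat shock assay from Cornell; the read-out is not stated. The concentration is filed as 10 mM, unlikely as a test dose, so the dose is not known. Higher reads as stronger inhibition (inferred: compounds with an IC50 in retests scored well above the rest). Of about 69,000 compounds tested this way, about 930 (1.4%) reached 50% or more in at least one test.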

Values are the deposited “Percent Effect”, in %. How 0% and 100% were set is not recorded. Most values in the screen are low, and negative values occur. The compounds are a random part of those screened. A dash means the value is not listed here; it may have been measured.

Cc1nc(C)n(C2CCCN(C(=O)Cc3csc(C(C)C)n3)C2)n1 (centres unmarked) gave Mtb heat-shock: -8.346%.
Cc1cccc2c1nc(COCC(=O)O)n2-c1ccc(N)nc1 gave Mtb growth Cornell: -11.99%; Mtb heat-shock: -14.24%.
O=C(CCc1ccsc1)N1CCCCC1Cn1cccn1 (centres unmarked) gave Mtb heat-shock: -16.46%.
Cc1ccc(C)c(NC(=O)N2C[C@H](N(C)C)C[C@H]2CO)c1 gave Mtb growth Cornell: -1.742%; Mtb heat-shock: -8.703%.
CC(C)CC(=O)N1Cc2ccccc2CC1C(=O)Nc1nccs1 (centres unmarked) gave Mtb growth Cornell: 19.56%; Mtb heat-shock: 38.17%.
O=C(Cn1c(=O)oc2ccccc21)NCC1(O)CCc2ccccc2C1 (centres unmarked) gave Mtb growth Cornell: 12.4%; Mtb heat-shock: 6.15%.
COc1ccc(CNC(=O)N2CCOCC2C2CC2)cc1C (centres unmarked) gave Mtb growth Cornell: -0.8805%; Mtb heat-shock: 10.73%.
CCN(Cc1ccncc1)C1CCCN(Cc2ccc(F)cc2OC)C1 (centres unmarked) gave Mtb growth Cornell: 6.92%; Mtb heat-shock: 12.66%.
CN1CCN(C(=O)N2CCCC2)Cc2cccnc21 gave Mtb growth Cornell: -16.48%; Mtb heat-shock: -32.21%.
CN(C)c1ncc(-c2ccc(F)cc2)c(C2CNCCO2)n1.Cl (centres unmarked) gave Mtb growth Cornell: 40.12%; Mtb heat-shock: -4.415%.
Cc1cnc(C)c(N2CCN(Cc3ccc(-c4cc[nH]n4)o3)CC2)n1 gave Mtb growth Cornell: 39.61%; Mtb heat-shock: 19.78%.
[H][C@]12CC[C@@]3(N=C(C)N(C)C3=O)[C@@]1([H])CN(C(=O)Nc1ccc(F)cc1)C2 gave Mtb growth Cornell: 1.428%; Mtb heat-shock: -1.193%.
CC(=O)N1CCC(C(=O)N2CCCC(Cc3cccc(C)n3)C2)CC1 (centres unmarked) gave Mtb growth Cornell: -87.71%; Mtb heat-shock: -16.11%.
CN(C)c1ncc(CN2CCC(O)(c3ccccc3F)CC2)cn1.O=C(O)CC(O)(CC(=O)O)C(=O)O gave Mtb growth Cornell: 6.266%; Mtb heat-shock: 2.424%.
CCn1ncc(C(=O)N2CCN(CC3CCCO3)CC2)c1C (centres unmarked) gave Mtb growth Cornell: 9.563%; Mtb heat-shock: 3.403%.
O=C(CN1CC(c2nc(-c3cccs3)no2)C1)NCC1CCCO1.O=C(O)C(=O)O (centres unmarked) gave Mtb growth Cornell: 10.65%; Mtb heat-shock: 7.879%.
CC(=O)NCCCn1ncc2c(C)cccc21 gave Mtb heat-shock: -0.03206%.
Cc1nc(C(=O)N2CCCC2c2noc(C3CC3)n2)c[nH]1 (centres unmarked) gave Mtb growth Cornell: -3.292%; Mtb heat-shock: -1.962%.
Cc1ccc(NC2CCN(C(=O)c3ccnc(N(C)C)c3)CC2)nn1 gave Mtb heat-shock: 14.48%.
Cn1nc2c(cc1=O)CN(Cc1nnc(C3CC3)o1)CC2 gave Mtb growth Cornell: -9.35%; Mtb heat-shock: 22.66%.
Cc1nc(CN2CCCC(N(C)Cc3cnc(C)s3)C2)no1 (centres unmarked) gave Mtb growth Cornell: -24.95%; Mtb heat-shock: -8.926%.
Cc1cccc(CN2C(=O)CCC23CCN(C(=O)c2ccco2)CC3)c1 gave Mtb growth Cornell: 26.85%; Mtb heat-shock: -5.583%.
CCO[C@H]1C[C@@H](O)C12CCN(C1Cc3ccccc3C1)CC2 gave Mtb heat-shock: 14.85%.
CN1CCC(CNC(=O)NCc2ccc(N(C)C)cc2)CC1 gave Mtb growth Cornell: -54.17%; Mtb heat-shock: -0.6179%.
COCCc1noc(-c2ccc(-c3ccc(N)nc3)nc2)n1 gave Mtb growth Cornell: -7.274%; Mtb heat-shock: -32.63%.
O=C1CCc2cc(NC(=O)N3CCCN(Cc4cccs4)CC3)ccc21 gave Mtb growth Cornell: 10.25%; Mtb heat-shock: -27.81%.
O=C(O)[C@@H]1CN(C2CCCC2)C[C@H]1C1CC1 gave Mtb growth Cornell: -0.4297%; Mtb heat-shock: 6.261%.
Cc1ccc(C2CSCCN2CC(=O)N2CCOCC2)cc1 (centres unmarked) gave Mtb heat-shock: -14.1%.
COC(=O)CNC(=O)c1cccc(C(=O)N(C)c2ccccc2)c1 gave Mtb heat-shock: -15.34%.

The first 3 entries again:

| compound | Mtb growth Cornell | Mtb heat-shock |
|---|---|---|
| `Cc1nc(C)n(C2CCCN(C(=O)Cc3csc(C(C)C)n3)C2)n1` (centres unmarked) | - | -8.346% |
| `Cc1cccc2c1nc(COCC(=O)O)n2-c1ccc(N)nc1` | -11.99% | -14.24% |
| `O=C(CCc1ccsc1)N1CCCCC1Cn1cccn1` (centres unmarked) | - | -16.46% |